The values that follow come from PMC12749359, “Chromosome compartment assembly is essential for subtelomeric gene silencing in trypanosomes” (Nature Communications, 2025).

By UniProt entry, the sequences of proteins in these tests, tags left out. Where a name states a change or a piece, a line headed by the entry shows the natural chain unless it says otherwise.
UniProt Q385E2: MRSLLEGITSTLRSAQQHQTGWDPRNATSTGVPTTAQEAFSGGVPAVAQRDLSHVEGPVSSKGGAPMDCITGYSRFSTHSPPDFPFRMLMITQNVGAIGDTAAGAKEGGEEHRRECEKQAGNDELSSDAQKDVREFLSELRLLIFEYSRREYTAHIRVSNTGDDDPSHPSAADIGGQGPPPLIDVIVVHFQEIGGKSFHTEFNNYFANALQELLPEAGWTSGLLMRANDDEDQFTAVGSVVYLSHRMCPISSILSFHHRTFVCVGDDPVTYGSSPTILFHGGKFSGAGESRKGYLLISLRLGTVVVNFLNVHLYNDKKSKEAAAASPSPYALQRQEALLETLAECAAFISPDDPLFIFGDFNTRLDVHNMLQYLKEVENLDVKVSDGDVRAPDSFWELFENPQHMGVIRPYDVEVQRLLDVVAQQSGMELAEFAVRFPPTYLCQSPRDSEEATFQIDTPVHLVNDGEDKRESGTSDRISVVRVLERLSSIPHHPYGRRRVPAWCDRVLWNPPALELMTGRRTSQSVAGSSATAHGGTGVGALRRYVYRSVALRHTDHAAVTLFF
UniProt Q4GZF2: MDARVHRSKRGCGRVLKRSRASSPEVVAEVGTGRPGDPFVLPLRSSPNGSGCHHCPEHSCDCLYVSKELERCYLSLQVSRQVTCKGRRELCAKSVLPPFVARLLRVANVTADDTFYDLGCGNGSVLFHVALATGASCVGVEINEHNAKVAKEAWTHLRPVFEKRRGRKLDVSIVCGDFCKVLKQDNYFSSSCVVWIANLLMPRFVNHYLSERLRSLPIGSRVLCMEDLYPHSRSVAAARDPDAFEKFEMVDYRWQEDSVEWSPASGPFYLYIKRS

Experiment [1] deals with phosphatidylinositol phosphate 5-phosphatase, V5-tagged (T. brucei) (UniProt Q385E2). The experiment in a line: affinity purification with mass spectrometry; anti-V5 mAb on protein G magnetic beads, lysate of DSS cross-linked T. brucei bloodstream forms expressing PIP5Pase-V5, wash with 300 mM NaCl, 0.1% NP40; proteins found in the immunoprecipitate (enrichment against non-tagged cells; network of direct and counterpart cross-links).

Experiment [2] shares this target. The description is as above. This is another data set of the same source.

Read-outs that look alike come from different tables or passages of the source. No constants are given. Whether binding was seen depends on the method and setting. In cells and extracts the contact can be indirect. These calls come from enrichment with a bait or labelling near it, and not all partners need be listed. For part of these data: Sequences can lack the tags named with a protein.

Take “histone methyltransferase DOT1B (from UniProt Q4GZF2 1-275) (enzyme)”: the binding result in experiment [1] was “binds”.

B1: histone acetyltransferase (HAT1) (enzyme, UniProt Q8I9K8 1-466)
chain: MVMFEVRQKVYATLHETFHAAIIQEVAHDAHTGQLLYYVHYVEQDSRMDRWLPGSALRERRQGRQADKQQVSKPTGCGITTRGQSRLVAEQEESGSNGATAGSAAKRGATPNCDKVTTTRTRKESSFFYRPKNVQRICMGPYEVETWYFSPYHLARPQVQQGFKQNAEYFTGDMELQLRQDSRDNALRSSVAFTSFVLHICPFCLQPFSEHEDVLRHVRLVCSRFPPGNEIYRDPIRNLTVVEIDGVAEPTFCEHLALLSKLFLDHKALDHDMTPFLFYVLCSIQPHGLEVLGYFSKEKTTPEMYNLSCILVLPQFQSRGIGRFLIELSYELSRREGKIGSPEKPLSDLGEKLYLGYWGDTIVSTLARAIEESHCVTLDYLVQATFMSEADVMRTLQYLKLIDGTQIVVSEESIERCLSKRVQRERSGQNYIFYPHLLSWSPHMYNEVVEQDVAPPVYDLRRAEKV
With B1, the binding result in experiment [2] is reported as “binds”.

B2: TRF (protein, UniProt Q4VHG6 1-382)
chain: MYCHAGVPSTSPSPTDFSEVHKILCGHIKQGNNFSVAAAVALEPLHGSSEFWRTCGYRSGIVSALLASSLGVQRETDQLSHLEPMTVADVYAMFRHVVDENAHLRQIIARLESGECDPDDGSGGITSSAERLRSLISEGYDALTGRSSPCMGEDDCGQTPGKWKTCSSGAAGTKRRRDSPEVTERAYVRPESPVPASETLSPAANSGDDTVDEAEQNNALDVLEQLPALPGTTRTVSSFDAVGEMVNRGAGGPSLHPTNPSEFRVGSERGSTIETHSSSELSNFANVGVGTSSGKQKRYKFSASEDEAIIKGLARFTKGQQRFQQIYYAYRSVWHPARTVSQLYDHWRGTLRYKVIQQQGYRGKNSVAARSPEKASNMENNE
Take B2: in experiment [2], the binding result is “binds”.
